The other results are listed elsewhere or left out.
How the values were obtained:
Assay in all cases: log2 fold change, soluble protein after heating vs DMSO (PISA); higher = thermal stabilisation; K562 cells, 10 uM, 30 min; active = over 0.2 and 3.5 SD of the protein, either way, in both replicates (recomputed)
[1] = compound: CC[C@@H]1C(=O)N(C)c2cnc(Nc3ccc(C(=O)NC4CCN(C)CC4)cc3OC)nc2N1C1CCCC1
Summary of the method: (§1)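 Soluble protein was defined as the supernatant after 21,000xg for 90 min. It came from K562 cells at 2×10^6 cells/mL given 10 μM compound for 30 min, heated in aliquots for 3 min across 48°C-58°C, pooled, and extracted in PBS with 0.5% NP-40 at 4°C, and was quantified by TMTpro 16plex LC-MS/MS with equalised channel sums. Thermal stability against control samples, from duplicates, is reported as log2 fold change.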

By UniProt entry, the sequences of proteins in these tests, tags left out. Where a name states a change or a piece, a line headed by the entry shows the natural chain unless it says otherwise.
UniProt Q9ULH0: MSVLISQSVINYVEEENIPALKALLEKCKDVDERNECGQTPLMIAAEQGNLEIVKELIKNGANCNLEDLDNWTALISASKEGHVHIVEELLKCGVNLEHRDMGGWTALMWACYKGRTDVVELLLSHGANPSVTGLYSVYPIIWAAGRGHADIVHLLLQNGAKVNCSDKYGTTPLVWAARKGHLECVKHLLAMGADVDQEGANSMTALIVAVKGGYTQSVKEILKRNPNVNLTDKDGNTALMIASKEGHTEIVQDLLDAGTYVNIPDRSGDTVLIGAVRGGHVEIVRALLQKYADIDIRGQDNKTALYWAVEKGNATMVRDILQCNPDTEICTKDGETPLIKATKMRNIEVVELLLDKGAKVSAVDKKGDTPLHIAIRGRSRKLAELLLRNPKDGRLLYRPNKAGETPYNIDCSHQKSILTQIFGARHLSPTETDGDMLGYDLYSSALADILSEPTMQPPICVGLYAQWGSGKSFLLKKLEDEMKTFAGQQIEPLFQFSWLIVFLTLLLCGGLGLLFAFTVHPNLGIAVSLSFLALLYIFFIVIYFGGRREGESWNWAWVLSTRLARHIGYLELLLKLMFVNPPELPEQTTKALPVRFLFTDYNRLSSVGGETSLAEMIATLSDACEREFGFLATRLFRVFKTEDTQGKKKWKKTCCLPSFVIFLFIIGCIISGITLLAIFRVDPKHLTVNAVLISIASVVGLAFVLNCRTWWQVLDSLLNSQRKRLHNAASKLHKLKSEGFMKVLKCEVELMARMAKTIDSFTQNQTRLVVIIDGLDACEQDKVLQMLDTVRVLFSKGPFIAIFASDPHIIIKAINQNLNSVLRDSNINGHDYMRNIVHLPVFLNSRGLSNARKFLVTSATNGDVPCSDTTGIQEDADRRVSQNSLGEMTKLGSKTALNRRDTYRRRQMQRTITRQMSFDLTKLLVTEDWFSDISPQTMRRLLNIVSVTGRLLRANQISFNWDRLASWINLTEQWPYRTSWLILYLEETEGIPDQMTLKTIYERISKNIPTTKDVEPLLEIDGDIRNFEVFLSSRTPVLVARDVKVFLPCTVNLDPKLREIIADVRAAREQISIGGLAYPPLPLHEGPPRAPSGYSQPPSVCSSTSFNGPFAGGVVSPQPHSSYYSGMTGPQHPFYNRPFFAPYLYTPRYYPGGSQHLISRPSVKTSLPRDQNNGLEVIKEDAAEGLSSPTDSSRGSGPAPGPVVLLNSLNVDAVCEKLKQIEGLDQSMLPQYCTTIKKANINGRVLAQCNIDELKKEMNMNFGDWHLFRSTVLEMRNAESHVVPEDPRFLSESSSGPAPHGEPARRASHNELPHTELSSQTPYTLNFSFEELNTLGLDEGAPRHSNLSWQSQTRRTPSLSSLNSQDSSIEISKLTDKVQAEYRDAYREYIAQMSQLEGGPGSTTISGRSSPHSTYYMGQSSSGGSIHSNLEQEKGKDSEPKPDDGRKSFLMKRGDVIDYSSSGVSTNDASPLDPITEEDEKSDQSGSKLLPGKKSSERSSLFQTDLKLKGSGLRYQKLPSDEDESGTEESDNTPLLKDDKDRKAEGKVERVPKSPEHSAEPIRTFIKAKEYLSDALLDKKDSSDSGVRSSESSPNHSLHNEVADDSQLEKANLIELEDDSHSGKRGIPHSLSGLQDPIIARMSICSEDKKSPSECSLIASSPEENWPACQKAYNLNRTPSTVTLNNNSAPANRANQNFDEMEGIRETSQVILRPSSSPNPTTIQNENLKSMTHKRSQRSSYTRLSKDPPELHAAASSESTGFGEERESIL
UniProt Q14667: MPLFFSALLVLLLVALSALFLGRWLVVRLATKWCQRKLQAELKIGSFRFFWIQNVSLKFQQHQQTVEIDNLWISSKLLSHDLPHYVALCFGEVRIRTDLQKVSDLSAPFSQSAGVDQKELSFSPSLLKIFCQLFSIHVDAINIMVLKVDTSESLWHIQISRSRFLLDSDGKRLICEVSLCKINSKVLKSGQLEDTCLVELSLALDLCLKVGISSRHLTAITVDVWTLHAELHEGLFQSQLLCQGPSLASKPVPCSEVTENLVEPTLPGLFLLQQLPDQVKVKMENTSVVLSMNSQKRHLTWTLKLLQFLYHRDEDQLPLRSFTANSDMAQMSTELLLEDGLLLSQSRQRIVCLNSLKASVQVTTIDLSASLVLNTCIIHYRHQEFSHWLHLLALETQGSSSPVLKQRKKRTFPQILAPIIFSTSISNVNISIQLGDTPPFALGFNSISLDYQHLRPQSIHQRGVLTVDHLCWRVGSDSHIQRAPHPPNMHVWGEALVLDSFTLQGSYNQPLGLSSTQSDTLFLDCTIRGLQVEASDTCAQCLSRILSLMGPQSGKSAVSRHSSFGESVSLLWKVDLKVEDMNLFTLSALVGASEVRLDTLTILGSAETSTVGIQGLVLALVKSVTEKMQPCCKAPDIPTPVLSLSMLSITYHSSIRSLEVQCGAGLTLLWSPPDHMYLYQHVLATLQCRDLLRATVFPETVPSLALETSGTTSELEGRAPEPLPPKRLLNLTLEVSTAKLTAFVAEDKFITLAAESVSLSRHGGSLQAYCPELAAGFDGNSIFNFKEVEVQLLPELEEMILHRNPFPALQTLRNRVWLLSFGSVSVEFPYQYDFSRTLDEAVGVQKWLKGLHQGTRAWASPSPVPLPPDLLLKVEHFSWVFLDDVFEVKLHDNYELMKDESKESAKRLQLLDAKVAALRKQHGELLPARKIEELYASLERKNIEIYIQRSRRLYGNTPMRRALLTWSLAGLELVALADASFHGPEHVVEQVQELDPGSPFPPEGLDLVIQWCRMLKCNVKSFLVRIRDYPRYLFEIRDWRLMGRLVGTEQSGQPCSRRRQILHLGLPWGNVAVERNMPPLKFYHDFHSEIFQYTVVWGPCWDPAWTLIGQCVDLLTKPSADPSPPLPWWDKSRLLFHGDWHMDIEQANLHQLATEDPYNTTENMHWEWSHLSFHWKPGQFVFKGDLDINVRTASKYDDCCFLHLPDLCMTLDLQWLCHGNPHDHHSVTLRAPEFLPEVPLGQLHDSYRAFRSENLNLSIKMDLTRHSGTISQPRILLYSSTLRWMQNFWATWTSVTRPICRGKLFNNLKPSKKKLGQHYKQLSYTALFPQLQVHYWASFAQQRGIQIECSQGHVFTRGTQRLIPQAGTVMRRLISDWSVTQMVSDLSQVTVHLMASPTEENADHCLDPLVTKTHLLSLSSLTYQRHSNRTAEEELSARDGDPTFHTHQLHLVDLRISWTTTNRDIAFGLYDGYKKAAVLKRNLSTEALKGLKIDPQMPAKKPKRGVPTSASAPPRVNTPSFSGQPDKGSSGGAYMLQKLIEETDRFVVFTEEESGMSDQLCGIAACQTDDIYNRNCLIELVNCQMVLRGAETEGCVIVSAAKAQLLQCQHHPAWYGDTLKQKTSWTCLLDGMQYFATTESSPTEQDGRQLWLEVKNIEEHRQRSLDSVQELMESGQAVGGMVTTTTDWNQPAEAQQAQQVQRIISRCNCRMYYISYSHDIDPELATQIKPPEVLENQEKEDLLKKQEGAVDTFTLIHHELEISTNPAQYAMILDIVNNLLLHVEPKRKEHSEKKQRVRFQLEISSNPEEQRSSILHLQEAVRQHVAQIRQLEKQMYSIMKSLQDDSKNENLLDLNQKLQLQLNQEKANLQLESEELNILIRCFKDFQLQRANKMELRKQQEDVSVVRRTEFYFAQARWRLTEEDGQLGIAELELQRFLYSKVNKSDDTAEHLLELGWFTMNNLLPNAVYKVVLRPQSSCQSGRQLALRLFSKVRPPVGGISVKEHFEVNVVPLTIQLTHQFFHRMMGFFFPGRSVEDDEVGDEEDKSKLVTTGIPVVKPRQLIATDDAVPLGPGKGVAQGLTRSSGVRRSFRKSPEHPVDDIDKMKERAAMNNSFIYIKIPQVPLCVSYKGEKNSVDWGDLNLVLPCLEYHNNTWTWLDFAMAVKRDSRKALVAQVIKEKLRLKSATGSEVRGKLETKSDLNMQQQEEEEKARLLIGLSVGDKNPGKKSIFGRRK
UniProt Q8IY47: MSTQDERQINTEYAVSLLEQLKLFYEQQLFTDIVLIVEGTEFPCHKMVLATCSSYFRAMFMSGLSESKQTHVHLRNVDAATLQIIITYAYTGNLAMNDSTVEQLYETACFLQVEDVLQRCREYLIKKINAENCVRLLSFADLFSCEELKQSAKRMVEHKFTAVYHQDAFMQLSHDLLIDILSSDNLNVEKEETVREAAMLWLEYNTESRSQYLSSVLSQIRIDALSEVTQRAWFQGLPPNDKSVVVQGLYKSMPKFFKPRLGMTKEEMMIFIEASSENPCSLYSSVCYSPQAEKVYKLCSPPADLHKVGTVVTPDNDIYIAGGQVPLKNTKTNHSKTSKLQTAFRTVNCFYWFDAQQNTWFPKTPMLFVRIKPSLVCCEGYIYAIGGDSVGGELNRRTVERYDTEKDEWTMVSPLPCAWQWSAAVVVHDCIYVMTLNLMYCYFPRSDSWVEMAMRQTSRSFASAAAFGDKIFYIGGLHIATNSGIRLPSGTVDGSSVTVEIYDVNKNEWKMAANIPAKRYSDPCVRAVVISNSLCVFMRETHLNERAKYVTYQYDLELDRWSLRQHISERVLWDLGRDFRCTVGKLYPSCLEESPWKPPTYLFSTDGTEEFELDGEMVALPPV
UniProt Q9Y6Y0: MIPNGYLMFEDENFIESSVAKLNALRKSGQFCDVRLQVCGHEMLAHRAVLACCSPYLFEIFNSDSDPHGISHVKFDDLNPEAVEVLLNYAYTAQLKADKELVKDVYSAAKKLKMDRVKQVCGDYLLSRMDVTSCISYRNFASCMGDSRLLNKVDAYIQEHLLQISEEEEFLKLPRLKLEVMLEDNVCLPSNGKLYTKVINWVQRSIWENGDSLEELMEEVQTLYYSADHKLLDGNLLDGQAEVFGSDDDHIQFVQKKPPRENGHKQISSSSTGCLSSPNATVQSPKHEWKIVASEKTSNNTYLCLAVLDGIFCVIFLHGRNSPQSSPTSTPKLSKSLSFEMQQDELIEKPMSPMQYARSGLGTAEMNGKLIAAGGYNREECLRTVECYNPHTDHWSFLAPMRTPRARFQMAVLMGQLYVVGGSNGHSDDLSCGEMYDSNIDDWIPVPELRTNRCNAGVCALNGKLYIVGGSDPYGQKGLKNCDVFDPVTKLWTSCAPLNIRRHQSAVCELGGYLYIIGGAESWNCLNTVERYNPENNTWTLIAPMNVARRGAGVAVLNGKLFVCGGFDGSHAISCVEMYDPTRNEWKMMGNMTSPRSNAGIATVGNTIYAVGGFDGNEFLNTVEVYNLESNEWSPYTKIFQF
UniProt Q9UK76: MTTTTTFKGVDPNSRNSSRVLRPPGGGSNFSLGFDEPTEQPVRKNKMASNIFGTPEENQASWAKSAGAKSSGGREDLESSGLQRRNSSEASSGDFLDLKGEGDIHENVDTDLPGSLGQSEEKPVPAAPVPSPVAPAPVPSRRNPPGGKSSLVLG
UniProt P17535: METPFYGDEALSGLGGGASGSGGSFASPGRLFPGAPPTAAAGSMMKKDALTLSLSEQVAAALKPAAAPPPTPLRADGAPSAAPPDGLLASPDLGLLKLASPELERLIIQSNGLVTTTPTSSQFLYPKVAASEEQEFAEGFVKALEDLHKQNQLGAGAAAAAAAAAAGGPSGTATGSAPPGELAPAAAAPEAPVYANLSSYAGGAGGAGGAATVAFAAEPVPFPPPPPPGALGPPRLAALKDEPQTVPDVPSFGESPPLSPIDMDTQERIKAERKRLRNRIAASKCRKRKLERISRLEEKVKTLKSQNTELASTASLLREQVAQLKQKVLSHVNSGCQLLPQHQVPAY
UniProt Q8N371: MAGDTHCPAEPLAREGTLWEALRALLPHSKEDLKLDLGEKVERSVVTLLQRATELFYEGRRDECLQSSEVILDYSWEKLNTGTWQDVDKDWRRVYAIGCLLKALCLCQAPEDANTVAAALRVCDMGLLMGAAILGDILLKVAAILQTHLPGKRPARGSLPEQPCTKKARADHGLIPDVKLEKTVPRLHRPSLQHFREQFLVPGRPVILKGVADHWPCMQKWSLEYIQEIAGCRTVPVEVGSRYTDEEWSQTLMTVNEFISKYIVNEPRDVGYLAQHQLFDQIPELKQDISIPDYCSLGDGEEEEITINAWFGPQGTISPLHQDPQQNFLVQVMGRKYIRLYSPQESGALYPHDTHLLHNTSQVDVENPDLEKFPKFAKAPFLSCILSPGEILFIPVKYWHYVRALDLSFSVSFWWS
UniProt Q9NXV2: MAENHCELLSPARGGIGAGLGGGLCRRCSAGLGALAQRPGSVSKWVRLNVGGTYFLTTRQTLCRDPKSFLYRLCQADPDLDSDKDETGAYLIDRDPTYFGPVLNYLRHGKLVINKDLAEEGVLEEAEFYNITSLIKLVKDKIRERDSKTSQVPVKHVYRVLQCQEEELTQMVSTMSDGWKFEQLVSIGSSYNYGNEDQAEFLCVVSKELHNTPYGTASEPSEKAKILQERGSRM

volasertib = compound: CC[C@@H]1C(=O)N(C)c2cnc(Nc3ccc(C(=O)N[C@H]4CC[C@H](N5CCN(CC6CC6)CC5)CC4)cc3OC)nc2N1C(C)C [volasertib]
Summary of the method: as §1

[2] = compound: CC[C@H](C)N1C=C(C2=C(C=C(C=C21)C3=CN=C(C=C3)N4CCNCC4)C(=O)NCC5=C(C=C(NC5=O)C)C)C
Summary of the method: as §1

epoxomicin = compound: CC[C@H](C)[C@@H](C(=O)N[C@@H]([C@@H](C)O)C(=O)N[C@@H](CC(C)C)C(=O)[C@]1(CO1)C)NC(=O)[C@H]([C@@H](C)CC)N(C)C(=O)C [epoxomicin]
Summary of the method: as §1

[3] = compound: CCn1c(C(=O)N(C2CC2)C2CC2)cc2c3c(ncn3C)c(Nc3cc(C)n(C)n3)nc21
Summary of the method: as §1

[4] = compound: CCn1cc(-c2ccnc3[nH]c(-c4cccc(CN(C)C)c4)cc23)c(-c2ccc(NC(=O)N(C)C)cc2)n1
Summary of the method: as §1

[5] = compound: CN(C)CC(=O)Nc1ccc2[nH]c(=O)c3ccccc3c2c1
Summary of the method: as §1

rosiglitazone = compound: CN(CCOC1=CC=C(C=C1)C[C@H]2C(=O)NC(=O)S2)C3=CC=CC=N3 (racemic) [rosiglitazone]
Summary of the method: as §1

[6] = compound: CN1C2=C(C3=C1C(=O)N(N=C3)CC4=CC(=CC=C4)N)SC(=C2)S(=O)C
Summary of the method: as §1

[7] = compound: CN1CCC(CNc2ccc3ncc(-c4cccc(OC(F)(F)F)c4)n3n2)CC1
Summary of the method: as §1

saracatinib = compound: CN1CCN(CCOc2cc(OC3CCOCC3)c3c(Nc4c(Cl)ccc5c4OCO5)ncnc3c2)CC1 [saracatinib]
Summary of the method: as §1

sotrastaurin = compound: CN1CCN(c2nc(C3=C(c4c[nH]c5ccccc45)C(=O)NC3=O)c3ccccc3n2)CC1 [sotrastaurin]
Summary of the method: as §1

alvocidib = compound: CN1CC[C@H](c2c(O)cc(O)c3c(=O)cc(-c4ccccc4Cl)oc23)[C@H](O)C1 [alvocidib]
Summary of the method: as §1

Tubastatin A = compound: CN1CCc2c(c3ccccc3n2Cc2ccc(C(=O)NO)cc2)C1 [Tubastatin A]
Summary of the method: as §1

[8] = compound: CNC(=O)C1=CC=CC=C1NC2=NC(=NC=C2Cl)NC3=C(C=C(C=C3)N4CCOCC4)OC
Summary of the method: as §1

defactinib = compound: CNC(=O)c1ccc(Nc2ncc(C(F)(F)F)c(NCc3nccnc3N(C)S(C)(=O)=O)n2)cc1 [defactinib]
Summary of the method: as §1

rucaparib = compound: CNCc1ccc(-c2[nH]c3cc(F)cc4c3c2CCNC4=O)cc1 [rucaparib]
Summary of the method: as §1

[9] = compound: CNc1nc(-c2ccc3c(N)n[nH]c3c2)cc(N2C[C@@H](C(=O)NC3CCCCC3)CC[C@H]2C)n1
Summary of the method: as §1

encorafenib = compound: COC(=O)N[C@@H](C)CNc1nccc(-c2cn(C(C)C)nc2-c2cc(Cl)cc(NS(C)(=O)=O)c2F)n1 [encorafenib]
Summary of the method: as §1

[10] = compound: COC(=O)[C@H](CCSC)NC(=O)C1=C(C=C(C=C1)NC[C@H](CS)N)C2=CC=CC=C2
Summary of the method: as §1

Measured: log2 fold change

KIAA2013 isoform 2 (UniProt Q8IYS2)
inactive: [1] 0.112 | volasertib 0.013 | [2] -0.032 | epoxomicin 0.044 | [3] 0.063 | [4] 0.07 | [5] 0.021 | rosiglitazone 0.002 | [6] -0.091 | [7] 0.069 | saracatinib 0.072 | sotrastaurin 0.067 | alvocidib 0.049 | Tubastatin A -0.003 | [8] -0.016 | defactinib -0.011 | rucaparib -0.04 | [9] 0.003 | encorafenib -0.044 | [10] 0.026

KNSTRN (UniProt Q9Y448)
inactive: [1] 0.07 | volasertib -0.05 | [2] -0.014 | epoxomicin 0.011 | [3] 0.008 | [4] 0.052 | [5] -0.062 | rosiglitazone -0.014 | [6] 0.147 | [7] -0.061 | saracatinib -0.03 | sotrastaurin -0.156 | alvocidib 0.037 | Tubastatin A 0.065 | [8] -0.014 | defactinib 0.015 | rucaparib 0.171 | [9] 0.056 | encorafenib 0.086 | [10] -0.153

KCTD3 (UniProt Q9Y597)
inactive: [1] 0.05 | volasertib 0.071 | [2] -0.018 | epoxomicin 0.055 | [3] -0.028 | [4] 0.001 | [5] -0.074 | rosiglitazone -0.019 | [6] -0.023 | [7] -0.091 | saracatinib -0.035 | sotrastaurin 0.039 | alvocidib 0.024 | Tubastatin A 0.032 | [8] 0.006 | defactinib 0.004 | rucaparib 0.018 | [9] -0.019 | encorafenib -0.052 | [10] 0.049

KIAA1191 (UniProt Q96A73)
inactive: [1] -0.017 | volasertib -0.075 | [2] -0.004 | epoxomicin -0.067 | [3] -0.04 | [4] 0.03 | [5] -0.005 | rosiglitazone -0.006 | [6] -0.019 | [7] -0.039 | saracatinib -0.033 | sotrastaurin 0.027 | alvocidib -0.038 | Tubastatin A 0.034 | [8] 0.061 | defactinib 0.017 | rucaparib -0.064 | [9] -0.046 | encorafenib 0.005 | [10] 0.061

KIF2A isoform 4 (UniProt O00139)
inactive: [1] 0.137 | volasertib 0.008 | [2] 0.031 | epoxomicin -0.104 | [3] -0.021 | [4] 0.043 | [5] -0.04 | rosiglitazone -0.007 | [6] 0.08 | [7] 0.007 | saracatinib -0.068 | sotrastaurin -0.042 | alvocidib 0.049 | Tubastatin A 0 | [8] -0.039 | defactinib 0.131 | rucaparib 0.228 | [9] 0.067 | encorafenib 0.112 | [10] 0.009

KIDINS220 (UniProt Q9ULH0)
inactive: [1] 0.046 | volasertib 0.024 | [2] 0.002 | epoxomicin 0 | [3] 0.007 | [4] -0.031 | [5] -0.028 | rosiglitazone -0.008 | [6] -0.025 | [7] 0.115 | saracatinib 0.02 | sotrastaurin -0.031 | alvocidib -0.032 | Tubastatin A 0.001 | [8] -0.009 | defactinib -0.016 | rucaparib 0.047 | [9] -0.021 | encorafenib 0.008 | [10] -0.002

KIAA0100 (UniProt Q14667)
inactive: [1] -0.175 | volasertib -0.047 | [2] 0.094 | epoxomicin -0.018 | [3] -0.067 | [4] -0.01 | [5] 0.01 | rosiglitazone 0.02 | [6] -0.1 | [7] -0.048 | saracatinib -0.021 | sotrastaurin -0.007 | alvocidib -0.057 | Tubastatin A 0.212 | [8] -0.068 | defactinib -0.076 | rucaparib 0.067 | [9] -0.014 | encorafenib -0.039 | [10] 0.007

KATNB1 (UniProt Q9BVA0)
inactive: [1] -0.012 | volasertib -0.096 | [2] 0.028 | epoxomicin -0.015 | [3] 0.021 | [4] -0.02 | [5] -0.031 | rosiglitazone 0.043 | [6] -0.008 | [7] -0.059 | saracatinib 0.002 | sotrastaurin -0.004 | alvocidib 0.009 | Tubastatin A -0.045 | [8] -0.016 | defactinib -0.077 | rucaparib -0.002 | [9] -0.03 | encorafenib 0.083 | [10] 0.042

KBTBD2 (UniProt Q8IY47)
inactive: [1] -0.029 | volasertib -0.118 | [2] -0.031 | epoxomicin 0.017 | [3] -0.026 | [4] -0.006 | [5] 0.006 | rosiglitazone 0.061 | [6] -0.051 | [7] -0.027 | saracatinib 0.01 | sotrastaurin 0.026 | alvocidib -0.123 | Tubastatin A 0.078 | [8] -0.039 | defactinib -0.064 | rucaparib 0 | [9] 0.015 | encorafenib 0.014 | [10] 0.007

IVNS1ABP (UniProt Q9Y6Y0)
inactive: [1] 0.244 | volasertib -0.09 | [2] 0.007 | epoxomicin 0.04 | [3] 0.044 | [4] 0.022 | [5] 0.068 | rosiglitazone -0.17 | [6] 0.069 | [7] -0.061 | saracatinib -0.101 | sotrastaurin -0.054 | alvocidib -0.009 | Tubastatin A 0.033 | [8] -0.069 | defactinib -0.049 | rucaparib 0.043 | [9] 0.084 | encorafenib 0.026 | [10] -0.023

KPNA3 (UniProt O00505)
inactive: [1] -0.097 | volasertib -0.204 | [2] 0.048 | epoxomicin 0.095 | [3] 0.035 | [4] -0.104 | [5] 0.134 | rosiglitazone 0.021 | [6] -0.246 | [7] -0.094 | saracatinib 0.003 | sotrastaurin -0.068 | alvocidib -0.122 | Tubastatin A 0.025 | [8] -0.011 | defactinib -0.051 | rucaparib -0.015 | [9] -0.138 | encorafenib 0.005 | [10] 0.041

JPT1 (UniProt Q9UK76)
inactive: [1] 0.015 | volasertib 0.075 | [2] -0.037 | epoxomicin 0.072 | [3] 0.044 | [4] -0.003 | [5] -0.012 | rosiglitazone -0.009 | [6] -0.057 | [7] -0.003 | saracatinib 0.031 | sotrastaurin 0.031 | alvocidib -0.015 | Tubastatin A 0.015 | [8] -0.044 | defactinib -0.023 | rucaparib 0.003 | [9] 0.013 | encorafenib -0.006 | [10] 0.019

JUND (UniProt P17535)
inactive: [1] 0.129 | volasertib 0.085 | [2] -0.071 | epoxomicin -0.031 | [3] 0 | [4] 0.057 | [5] -0.089 | rosiglitazone 0.015 | [6] 0.035 | [7] 0.167 | saracatinib 0.031 | sotrastaurin 0.013 | alvocidib 0.027 | Tubastatin A 0.005 | [8] -0.022 | defactinib -0.021 | rucaparib -0.033 | [9] -0.037 | encorafenib 0.023 | [10] -0.05

KDM8 isoform 3 (UniProt Q8N371)
inactive: [1] 0.004 | volasertib -0.002 | [2] 0.042 | epoxomicin 0.006 | [3] 0.007 | [4] -0.069 | [5] -0.008 | rosiglitazone 0.034 | [6] -0.089 | [7] -0.002 | saracatinib 0.065 | sotrastaurin 0.023 | alvocidib -0.138 | Tubastatin A 0.021 | [8] -0.045 | defactinib 0.035 | rucaparib 0.008 | [9] -0.064 | encorafenib 0.016 | [10] 0.009

KCTD5 (UniProt Q9NXV2)
inactive: [1] -0.089 | volasertib -0.075 | [2] -0.086 | epoxomicin 0.07 | [3] -0.001 | [4] -0.031 | [5] -0.007 | rosiglitazone -0.008 | [6] -0.057 | [7] -0.018 | saracatinib 0.03 | sotrastaurin 0.097 | alvocidib -0.094 | Tubastatin A 0.005 | [8] 0.015 | defactinib -0.039 | rucaparib -0.015 | [9] -0.079 | encorafenib 0.084 | [10] 0.03

2 records picked at random from those above, as already listed:
JUND (UniProt P17535)
inactive: [1] 0.129 | volasertib 0.085 | [2] -0.071 | epoxomicin -0.031 | [3] 0 | [4] 0.057 | [5] -0.089 | rosiglitazone 0.015 | [6] 0.035 | [7] 0.167 | saracatinib 0.031 | sotrastaurin 0.013 | alvocidib 0.027 | Tubastatin A 0.005 | [8] -0.022 | defactinib -0.021 | rucaparib -0.033 | [9] -0.037 | encorafenib 0.023 | [10] -0.05

KPNA3 (UniProt O00505)
inactive: [1] -0.097 | volasertib -0.204 | [2] 0.048 | epoxomicin 0.095 | [3] 0.035 | [4] -0.104 | [5] 0.134 | rosiglitazone 0.021 | [6] -0.246 | [7] -0.094 | saracatinib 0.003 | sotrastaurin -0.068 | alvocidib -0.122 | Tubastatin A 0.025 | [8] -0.011 | defactinib -0.051 | rucaparib -0.015 | [9] -0.138 | encorafenib 0.005 | [10] 0.041

Remaining list, next part.

KLHDC3 (UniProt Q9BQ90)
inactive: [1] -0.002 | volasertib -0.05 | [2] -0.019 | epoxomicin -0.091 | [3] -0.133 | [4] 0.078 | [5] 0.051 | rosiglitazone 0.047 | [6] -0.078 | [7] 0.228 | saracatinib -0.093 | sotrastaurin -0.031 | alvocidib -0.069 | Tubastatin A 0.034 | [8] -0.01 | defactinib -0.012 | rucaparib 0.063 | [9] -0.037 | encorafenib -0.041 | [10] -0.046

Reference: the supplement of paper PMC10849652
